The values below come from the supplement of paper PMC6289059.

Each structure is given as a SMILES string. “And” between values parts separate entries of the source, which are not always exact repeats. Equal values may be shown once. The list shows a part of the results. Single values are uncertain, as repeats are few or missing.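 The cells are hepatocyte-like cells grown from human stem cells in which the DGUOK gene was disrupted by CRISPR, a model of liver mtDNA depletion syndrome. Each well's ATP signal was scored against the other wells on its plate, and a drug counted as a primary hit when its score was 3 or higher.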

For the assay, the system named is DGUOK Δ14/Δ5 iPSC-derived hepatocyte-like cells (SV20). Kind of assay: ATP level (CellTiter-Glo luminescence) Z score relative to plate distribution, under 2-DG glycolysis block; higher = more cellular ATP (rescue of mitochondrial ATP production). The settings on record: 5 µM; treatment time: day 15 to day 20 of differentiation (5 days); 2-deoxy-D-glucose: 20 mM for 24 h before assay.
Turning to `CCC1(CC)C(=O)NC(=O)NC1=O`, the ATP level was inactive: 0.427.
Consider `CC([C@H](O)c1ccccc1)N(C)C` (stereo not given in full), for which the ATP level was inactive: -0.549.
On to `Cc1ncc(C[n+]2csc(CCO)c2C)c(=O)[nH]1`, for which the ATP level is inactive: 0.659.
As for `COc1ccc(OC)c(C(O)C(C)N)c1` (stereo not given), the figure is inactive: -0.315.
As for `CCC(=O)O[C@H]1CC[C@H]2[C@@H]3CCC4=CC(=O)CC[C@]4(C)[C@H]3CC[C@]12C`, the figure is inactive: -1.37; as for `O=C1C(Cl)=C(Cl)C(=O)C(Cl)=C1Cl`, inactive: 0.987.
The value for `C[C@@H]1CC[C@]2(NC1)O[C@H]1C[C@H]3[C@@H]4CC=C5C[C@@H](O)CC[C@]5(C)[C@H]4CC[C@]3(C)[C@H]1[C@@H]2C` was inactive: -1.09; that for `C=CCC1(C(C)CCC)C(=O)NC(=S)NC1=O` (stereo not given) was active: 5.84.
On to `CCCCCCCCCCCCCCCC[n+]1ccccc1`, for which the ATP level was inactive: -14.7.
As for `c1ccc(/N=N/c2ccccc2)cc1`, the ATP level is inactive: -5.81.
In the case of `CC(=O)O[C@@H]1CC[C@@]2(C)[C@@H](CC[C@@H]3[C@@H]2CC[C@]2(C)C(=O)CC[C@@H]32)C1`, the ATP level is inactive: 0.0594.
The value for `COP(=S)(OC)Oc1ccc(Sc2ccc(OP(=S)(OC)OC)cc2)cc1` was inactive: 0.661; that for `CCOP(=S)(OCC)Oc1nc(Cl)c(Cl)cc1Cl` was inactive: -0.251; that for `c1ccc2c(c1)sc1ccccc12` was inactive: 0.493.
The value for `O=P1(N(CCCl)CCCl)NCCCO1` (stereo not given) was inactive: 1.15; that for `CN1C(=O)CCS(=O)(=O)C1c1ccc(Cl)cc1` (stereo not given) was inactive: 1.05; that for `CN(C)[C@@H]1C(=O)C(C(N)=O)=C(O)[C@@]2(O)C(=O)C3=C(O)c4c(O)cccc4[C@@](C)(O)[C@H]3[C@H](O)[C@@H]12` was inactive: -1.78.
Consider `CC(=O)NC1CCSC1=O` (stereo not given), for which the ATP level is inactive: -0.545.
The value for `O=C(NC(O)C(Cl)(Cl)Cl)NC(O)C(Cl)(Cl)Cl` (stereo not given) was inactive: 1.93; that for `CNC(=O)Oc1ccccc1OC(C)C` was inactive: 1.43; that for `O=C(O)Cc1cnc[nH]1` was inactive: -2.23.
`COc1cc([C@@H]2c3cc4c(cc3[C@H](OC(C)=O)[C@H]3COC(=O)[C@@H]23)OCO4)cc(OC)c1OC`: the ATP level was inactive: 1.49.
As to `CCOP(=S)(OCC)Oc1ccc2c(C)c(Cl)c(=O)oc2c1`, the ATP level is inactive: -0.347.
As for `CC1CC(Cl)CCC1C(=O)OC(C)(C)C` (stereo not given), the figure is inactive: -0.926.
The value for `COc1ccccc1N1CCNCC1` was inactive: -1.64; that for `CCOc1cc(C=O)ccc1O` was inactive: 0.76; that for `COc1ccc(C(CN(C)C)C2(O)CCCCC2)cc1` (stereo not given) was inactive: -0.793.
The value for `C[C@H](N)[C@H](O)c1ccccc1` was inactive: -1.83; that for `CNC(=O)Oc1ccc2c(c1)[C@]1(C)CCN(C)[C@@H]1N2C` was inactive: -0.669; that for `CN1[C@H]2C[C@H](OC(=O)[C@H](CO)c3ccccc3)C[C@@H]1[C@@H](O)C2` was inactive: 0.603.
With `CN(C)C(=O)Oc1cccc([N+](C)(C)C)c1`, the ATP level was inactive: -0.0689 and inactive: 0.83.
Consider `CC1(C)C2CC(=O)[C@]3(C)C(CC[C@@]4(C)[C@H](c5ccoc5)OC(=O)[C@H]5O[C@]543)[C@@]2(C)C(=O)C[C@H]1O` (stereo not given in full), for which the ATP level was inactive: 0.729.
For the compound `COc1ccc(C(=O)O)cc1OC`, the ATP level was inactive: 1.53.
`NCC(=O)c1ccccc1`: the ATP level was inactive: 0.932.
For the compound `O=c1c(O)c(-c2ccc(O)c(O)c2)oc2c(O)c(O)cc(O)c12`, the ATP level is inactive: 1.7.
In the case of `CN1CCc2cc3c(cc2C1O)OCO3` (stereo not given), the ATP level is inactive: -6.07.
Regarding `CNCC(O)c1ccc(O)cc1` (stereo not given), the ATP level was inactive: 1.43.
On to `CN[C@@H]1[C@@H](O)[C@@H](O[C@@H]2[C@@H](O)[C@H](O[C@H]3O[C@H]([C@@H](C)O)[C@@H](O)[C@H](O)[C@H]3N)[C@@H](N)C[C@H]2N)OC[C@]1(C)O`, for which the ATP level is inactive: -0.0819.
On to `CC(C)C[C@H]1C(=O)N2CCC[C@H]2[C@]2(O)O[C@](NC(=O)[C@@H]3C=C4c5cccc6[nH]c(Br)c(c56)C[C@H]4N(C)C3)(C(C)C)C(=O)N12`, for which the ATP level was inactive: 0.205.
Consider `CN1[C@@H]2CC[C@H]1C[C@@H](OC(=O)C(CO)c1ccccc1)C2` (stereo not given in full), for which the ATP level was inactive: -0.595.
Consider `CNC(C)(C)Cc1ccccc1`, for which the ATP level is inactive: -0.576.
Regarding `CCOP(=S)(OCC)Oc1cc(C)nc(C(C)C)n1`, the ATP level was inactive: 0.788.
The value for `CC(=O)[C@H]1CC[C@H]2[C@@H]3CCC4C[C@H](O)CC[C@]4(C)[C@H]3C[C@H](O)[C@]12C` (stereo partly drawn) [3alpha,12alpha-DIHYDROXY-PREGNAN-20-ONE] was inactive: 1.55.
The value for `O=[N+]([O-])c1ccc(O)c([N+](=O)[O-])c1` was inactive: 0.139; that for `NCCCNCCSP(=O)(O)O` was inactive: -24.9; that for `CN[C@@H](Cc1c[nH]c2ccccc12)C(=O)O` was inactive: -0.552.
The value for `Nc1ccc([As](=O)(O)O)cc1` was inactive: 2.47; that for `COc1cc2occc2c2oc(=O)ccc12` was inactive: 0.192.
For the compound `COP(=S)(OC)Oc1cc(Cl)c(Cl)cc1Cl`, the ATP level is inactive: 1.87.
With `CN1C(=O)C(O)N=C(c2ccccc2)c2cc(Cl)ccc21` (stereo not given), the ATP level was active: 3.08.
As for `CCCCCCCCC(=O)NCc1ccc(O)c(OC)c1`, the figure is inactive: -0.586; as for `CC1=C2C[C@H]3[C@@H](CC=C4C[C@@H](O)CC[C@@]43C)[C@@H]2CC[C@]12O[C@@H]1C[C@H](C)CN[C@H]1[C@H]2C`, inactive: -0.156.
The value for `COc1cccc2c1cc([N+](=O)[O-])c1c(C(=O)O)cc3c(c12)OCO3` was inactive: 1.25; that for `COc1ccc(/C=C/c2cc(O)cc(O)c2)cc1` was inactive: 1.04.
On to `CC[C@H]1CN2CC[C@H]1C[C@H]2[C@H](O)c1ccnc2ccc(OC)cc12`, for which the ATP level was inactive: 0.156.
As for `CC(=O)[O][Hg][c]1ccccc1`, the figure is inactive: -3.4; as for `O=c1[nH]c2ccccc2n1C1CCN(CCCC(c2ccc(F)cc2)c2ccc(F)cc2)CC1`, inactive: -1.5.
In the case of `Cc1cc2c(C(C)C)c(O)c(O)c(C=O)c2c(O)c1-c1c(C)cc2c(C(C)C)c(O)c(O)c(C=O)c2c1O`, the ATP level is inactive: -6.28.
`C/C=C(\C)C(=O)O[C@H]1C[C@@H](OC(C)=O)[C@@]2(C(=O)OC)CO[C@H]3[C@@H](O)[C@@](C)([C@]45O[C@@]4(C)[C@H]4C[C@@H]5O[C@@H]5OC=C[C@@]54O)[C@H]4[C@]1(CO[C@]4(O)C(=O)OC)[C@@H]32`: the ATP level is inactive: 2.82.
As for `CC(=O)Nc1cc([As](=O)(O)O)ccc1O`, the figure is inactive: 0.356; as for `C#CCN(C)[C@H](C)Cc1ccccc1`, inactive: -2.89; as for `NCCc1ccccc1`, inactive: 1.46.
`CN(C)C(=O)Oc1ccc[n+](C)c1`: the ATP level was inactive: 0.352.
The value for `Cc1cnc[nH]1` was inactive: -2.92; that for `C[C@@H]1O[C@@H](O[C@@H]2C=C3CC[C@@H]4[C@H](CC[C@]5(C)[C@@H](c6ccc(=O)oc6)CC[C@]45O)[C@@]3(C)CC2)[C@H](O)[C@H](O)[C@H]1O` was inactive: -16.6.
The value for `C[C@@H]1O[C@@H](O[C@H]2CC[C@]3(C=O)[C@H]4CC[C@]5(C)[C@@H](C6=CC(=O)OC6)CC[C@]5(O)[C@@H]4CC[C@]3(O)C2)[C@H](O)[C@H](O)[C@H]1O` was inactive: -18.4; that for `CN1[C@@H]2C[C@@H](OC(=O)[C@H](CO)c3ccccc3)C[C@H]1[C@@H]1O[C@@H]12` was inactive: -0.0929; that for `CC1(C)C2CC(=O)[C@]3(C)C(CC[C@@]4(C)[C@H](c5ccoc5)OC(=O)C5OC543)[C@@]2(C)[C@@H](O)C[C@H]1O` (stereo not given in full) was inactive: 0.516.
For the compound `O=[N+]([O-])C(Br)(CO)CO`, the ATP level is inactive: -11.6.
`CCOC(=O)C1C(C=C(C)C)C1(C)C` (stereo not given): the ATP level was inactive: 2.65.
For `COC1=C[C@@H]2[C@@H]3Cc4ccc(OC)c(O)c4[C@]2(CCN3C)CC1=O`, the ATP level was inactive: -1.75.
The value for `O=C1C=CC(=O)c2ccccc21` was active: 3.1; that for `CN(N)C=O` was inactive: -2.7; that for `CCC(C)C(=O)O[C@@H]1C[C@@]2(C)[C@H](c3ccoc3)OC(=O)CC23OC2(C)O[C@]14[C@]1(C)[C@@H](CC(=O)OC)C5(C)CC1(O)[C@](O)(C5OC(=O)C1(C)OC1C)[C@@H](OC(C)=O)[C@]34O2` (stereo not given in full) was inactive: -1.45.
As for `NCC(CC(=O)O)c1ccc(Cl)cc1` (racemic), the figure is inactive: 2.34; as for `CNc1ccccc1C(=O)O`, inactive: 0.482.
The value for `CN1C[C@H](C(=O)N[C@]2(C)O[C@@]3(O)[C@@H]4CCCN4C(=O)[C@H](Cc4ccccc4)N3C2=O)C=C2c3cccc4[nH]cc(c34)C[C@H]21` was inactive: -0.65; that for `[O-][n+]1ccccc1[S-].[O-][n+]1ccccc1[S-].[Zn+2]` was active: 3.28; that for `CN1CCN(C(=O)O[C@H]2c3nccnc3C(=O)N2c2ccc(Cl)cn2)CC1` was inactive: 1.64.
With `Cc1c(N)nc([C@H](CC(N)=O)NC[C@H](N)C(N)=O)nc1C(=O)N[C@H](C(=O)N[C@H](C)[C@@H](O)[C@H](C)C(=O)N[C@H](C(=O)NCCc1nc(-c2nc(C(=O)NCCC[S+](C)C)cs2)cs1)[C@@H](C)O)[C@@H](O[C@@H]1O[C@@H](CO)[C@@H](O)[C@H](O)[C@@H]1O[C@H]1O[C@H](CO)[C@@H](O)[C@H](OC(N)=O)[C@@H]1O)c1cnc[nH]1` [BLEOMYCIN (bleomycin B2 shown)], the ATP level was inactive: 0.248.
The value for `COc1ccc2c(c1O)-c1c(OC)c(OC)cc3c1[C@H](C2)N(C)CC3` was inactive: 1.39.
As for `NC(=O)c1cc([N+](=O)[O-])cc([N+](=O)[O-])c1`, the figure is active: 5.09; as for `O=C1CC[C@@]2(O)[C@H]3Cc4ccc(O)c5c4[C@@]2(CCN3CC2CC2)[C@H]1O5`, active: 6.15.
For the compound `C=CCSSCC=C`, the ATP level is inactive: -0.854.
As for `CC(=O)[C@H]1CC[C@H]2[C@@H]3CC[C@H]4C[C@H](O)CC[C@]4(C)[C@H]3CC[C@]12C`, the figure is inactive: -0.109.
